Laboratory results from PubChem BioAssay (EPA / NIEHS).
This list was built around the results that the source calls inconclusive (neither active nor inactive); the mix of calls is not that of the screen. Potencies beside an inconclusive call are fits to weak or partial responses and may not hold up. The source made the active and inactive calls. How the source made its calls: active means hit-call score of the fitted dose curve at least 0.9, where 1 is the maximum; inconclusive means response in the unintended direction; inactive means score below 0.9.

read-out: sulfotransferase (SULT2A), SULT2A1 (gene 6822); test: CLD_SULT2A_24hr: CellzDirect (CLD) Gene Expression Assay for sulfotransferase (SULT2A) at 24 hours (AID 2283694);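 on AC50: potency for increased SULT2A1 mRNA level as induction over DMSO baseline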
Protocol: CLD_24hr is a cell-based, multiplexed-readout assay that uses hepatocyte, a human liver primary cell, with measurements taken at 24 hours after chemical dosing in a 96-well plate.CLD_SULT2A_24hr is one of 16 assay component(s) measured or calculated from the CLD_24hr assay. It is designed to make measurements of mRNA induction, a form of inducible reporter, as detected with chemiluminescence signals by Quantitative Nuclease Protection Assay (qNPA) technology.Data from the assay component CLD_SULT2A_24hr was analyzed at the endpoint, CLD_SULT2A_24hr, in the positive analysis fitting direction relative to DMSO as the negative control and baseline of activity. Using a type of inducible reporter, gain-of-signal activity can be used to understand changes in the reporter gene as they relate to the gene SULT2A1. Furthermore, this assay endpoint can be referred to as a primary readout. To generalize the intended target to other relatable targets, this assay endpoint is annotated to the transferase intended target family, where subfamily is sulfotransferase.
Human hepatocyte cultures were treated daily for two consecutive days with fresh dosing solutions containing appropriate concentrations of the 320 ToxCast chemicals (chemical identities were blinded to CellzDirect and other ToxCast collaborators), vehicle control (0.2% DMSO), and positive control inducers as summarized in Table 1. Due to the large number of treatment groups and chemicals examined, the ToxCast chemicals were divided into two groups (spanning two independent cultures of hepatocytes from separate donor preparations (Hu778: ToxCast plates 1 and 2; Hu776: ToxCast plates 3 and 4). Each preparation of human hepatocyte cultures was treated with respective vehicle control, medium only control, set of six positive controls/reference chemicals for the five hepatic receptor pathways, and a subset of eight of the ToxCast chemicals (indoxacarb, pyrithiobac-sodium, norflurazon, cyhalofop-butyl, methomyl, thiram, acetochlor, and propiconazole). These replicate data, coupled with internal replicates designed within the blinded ToxCast chemical library, provided additional data to evaluate interindividual differences between hepatocyte preparations and their potential impact on chemical profiles.Cell morphology and integrity were evaluated using phase-contrast microscopy as an indicator of hepatocyte cell health (Tyson & Green, 1987). Cultures for each treatment group (i.e., media, vehicle [0.2% DMSO], positive control inducers [multiple concentrations], and the ToxCast chemicals [multiple concentrations]) were observed and cell morphology was assessed relative to vehicle control cultures at each harvest time point (0, 6, 24, or 48 h). […] Images were evaluated at the conclusion of the study to assess changes in cell integrity and account for the effects of chemical exposure on uncharacteristic changes in concentration-dependent gene expression profiles. The results from these determinations of apparent cytotoxicity were annotated (yes/no) alongside the corresponding qNPA data for reference.At the conclusion of each treatment period, hepatocyte cultures (96-well) were washed with 1 volume of HBSS, lysed by addition of 25 ul ArrayPlate lysis buffer (HTG, Tucson, AZ), and 70 ul/well of Denaturation Oil, denatured by incubation at 95C for 10 min, and frozen at approximately -70C until analysis by nuclease protection assay (qNPA) (Roberts et al., 2007). For qNPA analysis, cell lysates were thawed at 50C for approximately 30 min, qNPA probes were added, and samples were incubated at 95C for 10 min to begin the detection process by denaturing the target RNA, dissociating the duplexes and secondary structure hybridization. At the conclusion of the hybridization period, S1 nuclease reagent was added to each sample to digest all nonprotected nucleotides at 50C for 60-90 min. […]

Compound | outcome | AC50
CC(C1CC1)C(O)(Cn1cncn1)c1ccc(Cl)cc1 (stereo not given) | inactive | 
CCCCC(CC)COC(=O)c1ccccc1C(=O)OCC(CC)CCCC (stereo not given) | inactive | 
Cc1ccc(N=CN(C)C=Nc2ccc(C)cc2C)c(C)c1 |  | inconclusive: 3.97 µM
O=C(O)COc1ccc(Cl)cc1Cl |  | inconclusive: 0.00384 µM
CSC(=O)c1c(C(F)F)nc(C(F)(F)F)c(C(=O)SC)c1CC(C)C |  | active: 7.07 µM
CCCCOCN(C(=O)CCl)c1c(CC)cccc1CC | inactive | 
CS/C(C)=N/OC(=O)N(C)SN(C)C(=O)O/N=C(\C)SC |  | inconclusive: 0.0915 µM
O=C(O)c1c(Cl)ccc2cc(Cl)cnc12 | inactive | 
CC(C)C1(C)N=C(c2ncccc2C(=O)O)NC1=O (stereo not given) | inactive | 
COP(=O)(OC)OC=C(Cl)Cl | inactive | 
CNC(=O)/C=C(\C)OP(=O)(OC)OC | inactive | 
S=C1NCCN1 |  | inconclusive: 0.00328 µM
N#CN | inactive | 
CCCSP(=O)(OCC)Oc1ccc(Br)cc1Cl (stereo not given) |  | inconclusive: 0.000212 µM
CC(C)N(C(=O)SCC(Cl)=C(Cl)Cl)C(C)C |  | inconclusive: 0.0129 µM
O=C(O)c1nc(Cl)ccc1Cl |  | inconclusive: 20 µM
C#CCC1=C(C)C(OC(=O)C2C(C=C(C)C)C2(C)C)CC1=O (stereo not given) | inactive | 
CCCN(CC)CC1COC2(CCC(C(C)(C)C)CC2)O1 (stereo not given) |  | active: 3.97 µM
CC(C)C1(C)N=C(c2nc3ccccc3cc2C(=O)O)NC1=O (stereo not given) |  | inconclusive: 20 µM
Nc1cnn(-c2ccccc2)c(=O)c1Cl |  | inconclusive: 20 µM

Compound | outcome | AC50
CN1COCN(Cc2cnc(Cl)s2)C1=N[N+](=O)[O-] | inactive | 
C[Si](Cn1cncn1)(c1ccc(F)cc1)c1ccc(F)cc1 |  | active: 20 µM
COP(=O)(NC(C)=O)SC (stereo not given) |  | inconclusive: 0.464 µM
CN(C)[C@@H]1C(=O)C(C(N)=O)=C(O)[C@@]2(O)C(=O)C3=C(O)c4c(O)cccc4[C@@](C)(O)[C@H]3[C@H](O)[C@@H]12 | inactive | 
N#CN=C1SCCN1Cc1ccc(Cl)nc1 |  | inconclusive: 0.0004 µM
CCCCC(C#N)(Cn1cncn1)c1ccc(Cl)cc1 (stereo not given) | inactive | 
COCc1cnc(C2=NC(C)(C(C)C)C(=O)N2)c(C(=O)O)c1 (stereo not given) | inactive | 
COP(=O)(OC)C(O)C(Cl)(Cl)Cl (stereo not given) |  | inconclusive: 20 µM
CCC(=O)Nc1ccc(Cl)c(Cl)c1 | inactive | 
CC1=C(C(=O)Nc2ccccc2)SCCO1 |  | inconclusive: 0.0004 µM
CC(C)[C@H](C(=O)O[C@H](C#N)c1cccc(Oc2ccccc2)c1)c1ccc(Cl)cc1 | inactive | 
CCNC(=O)NC(=O)C(C#N)=NOC |  | inconclusive: 20 µM
N#CSCSC#N | inactive | 
O=P(O)(O)CCCl |  | inconclusive: 0.03 µM
Fc1ccc(Oc2ccnc3cc(Cl)cc(Cl)c23)cc1 |  | inconclusive: 3.97 µM
COCC(C)N(C(=O)CCl)c1c(C)csc1C (stereo not given) | inactive | 
CCOC(=O)CC(SP(=O)(OC)OC)C(=O)OCC (stereo not given) |  | inconclusive: 20 µM
CCOP(=O)(SC(C)CC)N1CCSC1=O (stereo not given) | inactive | 
CCNc1nc(Cl)nc(NC(C)(C)C#N)n1 | inactive | 
C=C(C)[C@H]1Cc2c(ccc3c2O[C@@H]2COc4cc(OC)c(OC)cc4[C@@H]2C3=O)O1 |  | active: 3.88 µM

Part of the list above in another layout:
COCc1cnc(C2=NC(C)(C(C)C)C(=O)N2)c(C(=O)O)c1 (stereo not given)
  outcome: inactive
COP(=O)(OC)C(O)C(Cl)(Cl)Cl (stereo not given)
  AC50: inconclusive: 20 µM
